The campaign covered roughly 52,000 sequences. About 210 (0.4%) were called active.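 Rule for the calls: active = gene whose silencing raises cell survival under the drug, median off-target-corrected z-score across its silencing RNAs 2 or more; inactive = the rest.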 This is one part of the list.
Assay: Resistance to Poly (ADP-Ribose) Polymerase inhibitor: Gene Identification via Genome-wide siRNA Screen
Settings: mouse BRCA2 R2336H ES cells, olaparib, CellTiter-Glo viability; active compounds read high
Outline: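 Mouse BRCA2 R2336H ES cells were reverse-transfected with siRNA (20 nM final), treated at 48 h with 500 nM olaparib, and read by CellTiter-Glo after 72 h. Scores: MAD-based z per siRNA, median per gene, seed off-target correction.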

| Sequence | z-score |
| --- | --- |
| GGGCAAUGGGUGAUCUAAUTT against Rpel1 | inactive: -1.06 |
| GCGAUACCGUUCUCUGUACTT against MGC58608 | inactive: -1.04 |
| GGAAGUUCCUCUCUACUUATT against Col8a2 | inactive: -0.542 |
| GGACAGAGUUCGAUCGACUTT against BC021523 | inactive: -0.107 |
| GGGCCUUGUACUUCACUUGTT against Crsp3 | inactive: -1.71 |
| GGGACAAUGUACAUCUACUTT against E230019M04 | inactive: -1.54 |
| GGCCCAACACCUUUAUCAUTT against Akt1 | inactive: 0.692 |
| GGAAGGCCGCAUACUGAUGTT against Scgn | inactive: 0.256 |
| GGACACUUCUUAUGAUGACTT against Nrf1 | inactive: -1.17 |
| GGCUGGAUGUCAGAUUGCATT against Olfr1389 | inactive: -0.831 |
| GGCAGCCUAUAUAUACUCATT against 4921521K07Rik | inactive: -0.27 |
| CGCACAGGUCAUUCUCGUGTT against Rab3b | inactive: 1.1 |
| GGAAAUCAAAGCUUUUGAGTT against Plaa | inactive: -0.318 |
| GCACAUAAAAUGCUCACUGTT against Rgr | inactive: -0.761 |
| CCACAUCCCGAGUAUACAUTT against 4933424F08Rik | inactive: 0.2 |
| GGCAAAUUCUGGAUCUGCUTT against BC031575 | inactive: -1.05 |
| GGAAGGUGGAGUUUGAAAGTT against AW060207 | inactive: -0.184 |
| GGUCUUCUACAGGAGCAAATT against Bcmo1 | inactive: 0.692 |
| GCUGCAUUCAGUGAAGAUCTT against Lgals7 | inactive: -1.48 |
| GGAAGAAGCAAAGAACUAUTT against Spg20 | inactive: 0.597 |
| GGGCUUUCAAAGAUGAAAUTT against Mas1 | inactive: -0.164 |
| CCUUGUUCGUCGCUGAGUUTT against Phca | inactive: -1.56 |
| GGAUAUGGAGAAAAGGAAATT against BC026439 | inactive: -0.298 |
| CCAAGUAUAGCUAUGCACATT against 4833432P19Rik | inactive: -0.224 |
| CCACAGCACCGGAUAAAACTT against Mrgprb3 | inactive: 0.0362 |
| GGAAUAAAGAAGUGAAAUCTT against Olfr1009 | inactive: 0.19 |

| Sequence | z-score |
| --- | --- |
| GGCCUUUAUCAGAAAGGUGTT against Grina | inactive: -0.252 |
| GGAACUCGUCAUGAGAGAATT against Cndp1 | inactive: 0.299 |
| GGGUGAAAAAGGAAUAAAGTT against Col7a1 | inactive: 1.23 |
| CCAAAUUGCUUACAUGAUATT against Greb1 | inactive: 1.07 |
| GCUUUCCACCACGUACUGATT against Plekha6 | inactive: 0.286 |
| CCUAUGAAGCUCCAUUAUGTT against Madcam1 | inactive: 0.762 |
| GCUCCAUGGAUAUUUCUGGTT against Pias1 | inactive: 0.971 |
| GGCCAGGAAAGCUACUUAGTT against Kcnj11 | inactive: -0.256 |
| GCCGACCAGUUCCUAGUGATT against 1500002M01Rik | inactive: -0.907 |
| GCAUCUGCCAAAUUCAAUGTT against Hsf4 | inactive: -0.94 |
| GGAUCACAGCAGAAGAAAUTT against 5730537D05Rik | inactive: -2.31 |
| GCCACACUGAAAUAAUUUGTT against Slco1a4 | inactive: 0.896 |
| CCACCAUGCUUCUAAGCCUTT against 4921511C16 | inactive: 0.8 |
| GUCUUGCGUGACAACAUCCTT against Hist2h4 | inactive: -1.34 |
| GUCAGAACCAUAGCCAUGATT against V1ri7 | inactive: 0.723 |
| GCAUCGCCAUCUAUAACUCTT against E230025K15 | inactive: 0.721 |
| GCUUGCUUGACCUAACUAGTT against D6Ertd538e | inactive: 0.935 |
| GGAUAGACAGAAAUUCUCATT against Flot1 | inactive: -0.724 |
| CCUGAUUGGGAUCUCAAGATT against 2700094L05Rik | inactive: -0.425 |
| GGUACAUUGGCAUUGUGAATT against Hnrpf | inactive: 0.344 |
| CCUCUACAUCAGAGUAUGATT against 4930525K10Rik | inactive: -0.765 |
| GGACUUUCUCUAGGAUCCATT against Slamf8 | inactive: -0.0842 |
| GGAACAAUUGUUCCUGUGATT against Kcne1 | inactive: -0.318 |
| CAUUGGUAUUGCCAAGGCATT against Olfr1330 | inactive: -0.872 |
| GGCUGUCCAACAAGCAGAGTT against 9430067K14Rik | inactive: -0.0984 |
| CCGAUUUAAUCUCUUAGAATT against Ets2 | inactive: -0.98 |

7 consecutive records from above, for reference:

| Sequence | z-score |
| --- | --- |
| GCCACACUGAAAUAAUUUGTT against Slco1a4 | inactive: 0.896 |
| CCACCAUGCUUCUAAGCCUTT against 4921511C16 | inactive: 0.8 |
| GUCUUGCGUGACAACAUCCTT against Hist2h4 | inactive: -1.34 |
| GUCAGAACCAUAGCCAUGATT against V1ri7 | inactive: 0.723 |
| GCAUCGCCAUCUAUAACUCTT against E230025K15 | inactive: 0.721 |
| GCUUGCUUGACCUAACUAGTT against D6Ertd538e | inactive: 0.935 |
| GGAUAGACAGAAAUUCUCATT against Flot1 | inactive: -0.724 |

Next part

| Sequence | z-score |
| --- | --- |
| CGGGAUAGUAACUUCUUAATT against 2310038H17Rik | inactive: -0.872 |
| CCAAAGAGAUCCCAUACAATT against 1700013B16Rik | inactive: -0.651 |
| GGAGGAAAAAUGAAAAGUATT against Clpx | inactive: 0.132 |
| GCAGCAGUAAUAGUCAUACTT against Ccnj | inactive: 1.7 |
| CCUGACCUAAUCGAGAAUGTT against Speer2 | inactive: 1.42 |
| GCCUUAGGAUACUACUGUUTT against Map3k3 | inactive: -1.57 |
| GGGAAAGUGUGUAAUAAAUTT against AU040377 | inactive: 0.918 |
| GGAGAACCCAUGUAACUGUTT against Tcl1b1 | inactive: 0.17 |
| CGGCGAUGGAAAAAAAUUUTT against 2810417M05Rik | inactive: 1.66 |
| CGUGUGUUCCGGAAACAGATT against Tnfrsf11b | inactive: -0.172 |
| CCUUAUUGUGACAGAAGUATT against Tnc | inactive: 0.0549 |
| GCUAAGAGUACAUUGUAACTT against Tmeff2 | inactive: 0.267 |
| GGAUCAGAACUUAUCUGUGTT against D530033C11Rik | inactive: -0.73 |
| GCCACAUAGAUCGCAUGGUTT against Lox | inactive: -1.58 |
| GGCACAAGUAAAGGUAGUCTT against 4930430A15Rik | inactive: 0.265 |
| GGAACAAUAUUGAUGAUGUTT against Pten | inactive: 0.613 |
| GGGUUCUCCAAUGCUUACATT against Mrps23 | inactive: 0.213 |
| CCCAGGUAGAUCCUAUCCUTT against Mllt7 | inactive: 0.8 |
| CCCGUUGUAUACAAAUACCTT against D7Ertd743e | inactive: 0.084 |
| GCCUGUAAGACUGUACUGGTT against 1110021N19Rik | inactive: -0.158 |
| GGACCACCAUUGUGAUCCATT against Kcnk2 | inactive: 0.409 |
| GCAUAUUUCUAAGCUGCAUTT against Qdpr | inactive: -1.25 |
| GGUCAACCUUCUGAAGCAGTT against C230069K22Rik | inactive: -1.31 |
| CCUAUCAACCUAAACUCCATT against Car8 | inactive: -0.524 |
| GGAUGCUUUGAAAUAAAACTT against 1110032A04Rik | inactive: 2.58 |
| GCACGAGGAUGUGAUAUUCTT against Txndc2 | inactive: -0.96 |

| Sequence | z-score |
| --- | --- |
| GCCUUCAUCAAAAAACACUTT against Txndc2 | inactive: 1.36 |
| GGUCACUUGGAAUUUGUAATT against Gata6 | inactive: 0.566 |
| CCAGUAACCAGUGCAAUCATT against Tnp2 | inactive: -2.45 |
| GGACAUGUUUGUGUUAAAGTT against Catna1 | inactive: 0.34 |
| GGAAAUCAGUGUCUUUUACTT against Sumf1 | inactive: 1.38 |
| GGGCAUCAGCUAUUAAAGATT against Tpmt | inactive: -0.405 |
| GUUUAAAACCUAUGGCAUCTT against Rps21 | inactive: -3.4 |
| GGCCGUCAGCUUUACACAGTT against 4921521N14Rik | inactive: -0.287 |
| GGAAGAACUCUCAGAAAAATT against Txk | inactive: -0.45 |
| GGAUAGUAACGGAAACUUGTT against Usp25 | inactive: 2.49 |
| GGAACAAAUAAAGGUAAACTT against Ncoa6ip | inactive: 2.61 |
| CCGUAAUCGCUGCUUCAUATT against Cideb | inactive: -0.32 |
| GCCUAGAUACAGCUCCUUGTT against Clybl | inactive: -0.403 |
| CGAACUUUGUCAUGUCCAUTT against 9930111J21Rik | inactive: 1.68 |
| CGCCUUUUGGAAUAUUUCATT against 2900024O10Rik | inactive: -0.704 |
| GGAAGGGUCAGAAAAAUGUTT against Slc1a2 | inactive: 0.779 |
| GGUGUCUUUGCUCUUAAUUTT against 5730470L24Rik | inactive: 0.926 |
| GGUAAAGAUCCAGUGCCGCTT against 1810062O14Rik | inactive: 0.886 |
| CCAAAUGCUUAUCUCUACATT against C330023D02Rik | inactive: -0.776 |
| GGUGGUGGAACAAGAUGAGTT against Psen1 | inactive: 1.58 |
| GGAGUUUGUGUUUUAUCUATT against Ppp1r3b | inactive: 1.12 |
| GGCAGAGCUAGAUCAAAUUTT against 1810015C04Rik | inactive: -0.687 |
| GGUAUUUUUUUCUCAGCCATT against Dhdh | inactive: -0.108 |
| GCACCUAACUCUAGUUUUGTT against Golga7 | inactive: 0.953 |
| GGGAACAUGUAAACUAACGTT against Klf3 | inactive: 0.667 |

From PubChem BioAssay AID1347423 (Functional Genomics Laboratory (NCATS/FGL), 2020)
